Laboratory results published in PubChem BioAssay AID504467 (National Center for Advancing Translational Sciences (NCATS), 2011).
Among all 330,000 compounds or so, about 7,700 (2.3%) were called active. This list was built around the results that the source calls inconclusive (neither active nor inactive); the mix of calls is not that of the screen. Calls come from the whole dose curve; as a rule, active = well fitted inhibition curve with a large enough effect; inconclusive = small, poorly fitted or top-dose-only effect, or effect the other way; inactive = flat fitted curve, though single readings scatter. Potencies of inconclusive entries are doubtful fits and often do not repeat.

Assay: qHTS screen for small molecules that inhibit ELG1-dependent DNA repair in human embryonic kidney (HEK293T) cells expressing luciferase-tagged ELG1; note: nearly all actives have a fitted effect of over 55% in size
Settings: HEK293T ELG1-luciferase reporter, luminescence, 16 h, DNA damage induced by 5-fluorouridine; activity change, negative = inhibition: at 46.1 µM (top of the series)
Outline: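 DMSO vehicle served as the neutral condition. Each well held 2,000 cells given 5-fluorouridine plus compound; after 16 hr at 37 °C/5% CO2, ONE-Glo was added and luciferase measured 30 min later.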
% is set by controls: 0 for no effect and ±100 for the full control effect; potency is the fitted concentration of half-maximal effect.

Row | SMILES | Potency | activity change, negative = inhibition
1 | O=C(NC1=NCCS1)c1cccc(OC(F)F)c1 | inconclusive: 6.51 µM [activator, partial curve] | 
2 | OCC[C@H]1C[C@@H](O)[C@H](O)[C@@]2(CCc3ccccc3CO2)O1 | inconclusive: 11.2 µM [activator, partial curve, poor fit] | 
3 | CC(C)C(NC(=O)Nc1ccccc1)C(=O)Nc1cccc(S(=O)(=O)N(C)C)c1 (stereo unspecified) |  | inactive: -9.7%
4 | O=C(NCc1nnc(SCC(=O)N2CCC(Cc3ccccc3)CC2)o1)c1ccco1 | inconclusive: 29.1 µM [inhibitor, single point] | 
5 | NS(=O)(=O)c1ccc(NC(=O)COC(=O)CCc2ccccc2)cc1 |  | inactive: -7.46%
6 | COC(=O)c1cc(=O)n(Cc2ccco2)c(=Nc2ccc(F)cc2)s1 | inconclusive: 18.3 µM [inhibitor, single point] | 
7 | Cc1ccccc1NC(=O)NNC(=O)c1ccc2ccccc2c1 |  | inactive: 15.4%
8 | O=C(NC(=S)Nc1ccc2[nH]c(=O)[nH]c2c1)c1ccccc1F | inconclusive: 0.164 µM [inhibitor, full curve, poor fit] | 
9 | c1ccc(CSc2ccc(-c3ccc4c(c3)OCO4)nn2)cc1 | inconclusive: 20.6 µM [activator, partial curve] | 
10 | CNC(=O)Nc1ccc(S(N)(=O)=O)cc1 |  | inactive: 1.97%
11 | Cc1nn(C)c(C)c1/C=N/NC(=O)c1csc2ccccc12 | inconclusive: 23.1 µM [activator, single point] | 
12 | CCC1C(=O)N=C(SCC(=O)Nc2ccc(C)cc2)N(c2ccccc2)C1=O (stereo unspecified) | inconclusive: 18.3 µM [activator, partial curve, poor fit] | 
13 | O=C(Cc1ccccc1)N1CCN(c2ccc([N+](=O)[O-])cc2)CC1 | inconclusive: 6.51 µM [inhibitor, single point] | 
14 | O=C1CN(C(=O)COc2cccc(F)c2)c2ccccc2N1 | inconclusive: 23.1 µM [activator, partial curve, poor fit] | 
15 | COCCCNC(=S)NNC(=O)c1ccc(S(=O)(=O)N2CCC(C)CC2)cc1 | inconclusive: 16.4 µM [inhibitor, partial curve, poor fit] | 
16 | CC(=O)Nc1ccc(C(=O)Cn2nnc3ccccc3c2=O)cc1 | inconclusive: 23.1 µM [activator, single point] | 
17 | O=C(CSc1nc2ccccc2s1)NNC(=S)Nc1ccc(Cl)cc1 |  | inactive: -1.95%
18 | CCOc1cc(C2C3=C(CCCC3=O)N(CC(=O)O)C3=C2C(=O)CCC3)ccc1OC |  | inactive: 10.4%
19 | O=C(CNc1cccc(C(F)(F)F)c1)N/N=C/c1cccc(Br)c1 |  | inactive: 2.07%
20 | O=C(O)c1nn(CCOc2cccc(Br)c2)c(=O)c2ccccc12 |  | inactive: -2.67%
21 | CCN(CC)C(=O)Cn1cc(/C=C(\C#N)C(=O)N2CCN(c3ccccc3)CC2)c2ccccc21 | inconclusive: 10 µM [inhibitor, partial curve, poor fit] | 
22 | Cc1ccc(Cl)cc1NC1=NC(=S)N(C(C)C)C12CCCCC2 |  | inactive: -21.3%
23 | Cc1ccc(OCC(=O)N(C)CC(=O)Nc2ccc(Cl)c(C(F)(F)F)c2)c([N+](=O)[O-])n1 |  | inactive: -26.1%

Compounds from the list above with an aryl thioether with sulfur outside any ring, in the order listed:
Row | SMILES | Potency | activity change, negative = inhibition
4 | O=C(NCc1nnc(SCC(=O)N2CCC(Cc3ccccc3)CC2)o1)c1ccco1 | inconclusive: 29.1 µM [inhibitor, single point] | 
9 | c1ccc(CSc2ccc(-c3ccc4c(c3)OCO4)nn2)cc1 | inconclusive: 20.6 µM [activator, partial curve] | 
17 | O=C(CSc1nc2ccccc2s1)NNC(=S)Nc1ccc(Cl)cc1 |  | inactive: -1.95%

The listing continues.

Row | SMILES | Potency | activity change, negative = inhibition
24 | CCOC(=O)c1ccc2c(c1)nc(C1CCN(S(=O)(=O)c3cccs3)CC1)n2CC | inconclusive: 23.1 µM [inhibitor, single point] | 
25 | O=[N+]([O-])c1cccc(C(=S)N2CCN(c3ccc(F)cc3)CC2)c1 | inconclusive: 29.1 µM [inhibitor, single point] | 
26 | O=C(/C=C/c1ccc(F)cc1)NC(=S)Nc1ccccc1O | inconclusive: 20.6 µM [activator, partial curve] | 
27 | O=C(NNC1=NS(=O)(=O)c2ccccc21)c1ccccc1 | inconclusive: 16.4 µM [activator, partial curve, poor fit] | 
28 | CCNC(=O)c1ccccc1NC(=O)C1CC(=O)N(C(C)C)C1 (stereo unspecified) |  | inactive: 18.4%
29 | COc1ccc(NC(=O)CNCc2ccc(Cl)cc2)cc1S(=O)(=O)N1CCOCC1 |  | inactive: 0%
30 | Cn1cc(C(=O)NCCN2CCN(c3cccc(Cl)c3)CC2)c2c3ccccc3n(C)c2c1=O | inconclusive: 18.4 µM [inhibitor, single point] | 
31 | COc1ccc2cc(S(=O)(=O)N3CCCC(C)C3)ccc2c1 (stereo unspecified) | inconclusive: 18.3 µM [inhibitor, partial curve, poor fit] | 
32 | COc1cccc(CNc2ncnc3ccc(-c4c(C)noc4C)cc23)c1 |  | inactive: 24.1%
33 | C=CCNC(=S)Nc1ccc(OC(F)F)c(Cl)c1 | inconclusive: 18.3 µM [inhibitor, single point] | 
34 | CC(C)NC(=O)c1ccccc1NC(=O)C(C)Oc1ccccc1 (stereo unspecified) |  | inactive: -3.61%
35 | O=C(NCC1COc2ccccc2O1)c1cc(S(=O)(=O)N2CCOCC2)c(Cl)cc1Cl (stereo unspecified) | active: 18.3 µM | 
36 | COc1ccccc1NS(=O)(=O)c1cc(NC(=O)c2cnccn2)ccc1N1CCOCC1 | inconclusive: 23.1 µM [inhibitor, partial curve, poor fit] | 
37 | CC(=O)c1ccc(S(=O)(=O)NC2CC(=O)N(c3ccc(Cl)cc3)C2)cc1 (stereo unspecified) | inconclusive: 11.6 µM [inhibitor, single point] | 
38 | O=C(NCCSC1CCCCC1)c1ccccc1 | inconclusive: 23.1 µM [activator, single point] | 
39 | O=c1c2cn[nH]c2[nH]c(=S)n1-c1ccccc1F | inconclusive: 9.2 µM [activator, partial curve] | 
40 | CC1(C)C(c2cccs2)=[N+]([O-])C2(CCCCC/C2=N\O)N1O (stereo unspecified) |  | inactive: 7.37%
41 | CCC(CO)Oc1cc(NCc2cccc(Cl)c2)c2ncn(C(C)C)c2c1 (stereo unspecified) | inconclusive: 23.1 µM [inhibitor, partial curve] | 
42 | O=C(Cc1ccccc1)NCCc1ccc(Cl)cc1Cl |  | inactive: 3.66%
43 | CC1=CS/C(=C(/C#N)C(=O)NCc2ccco2)N1c1ccccc1 | inconclusive: 8.2 µM [inhibitor, partial curve] | 
44 | O=C(CCn1c(=O)sc2ccccc21)Nc1nc2ccccc2s1 |  | inactive: 12%
45 | CCOC(=O)CN(C(=O)CSc1nnnn1C)c1ccccc1 |  | inactive: 16.7%
46 | CCCC(C)NC(=O)c1ccc(-c2ccccc2)cc1 (stereo unspecified) | inconclusive: 20.6 µM [activator, partial curve] | 
